From publication PMC8888459
No constants are given. Whether binding was seen depends on the method and setting. Some entries that bind do so weakly or less than the wild type. For some assays here: Tags and fused reporters may be left off the sequences shown.

Amino acid sequences for entries named in this document (tags omitted). A change or cut given only in a name is not applied to a line headed by its entry.
UniProt P25374: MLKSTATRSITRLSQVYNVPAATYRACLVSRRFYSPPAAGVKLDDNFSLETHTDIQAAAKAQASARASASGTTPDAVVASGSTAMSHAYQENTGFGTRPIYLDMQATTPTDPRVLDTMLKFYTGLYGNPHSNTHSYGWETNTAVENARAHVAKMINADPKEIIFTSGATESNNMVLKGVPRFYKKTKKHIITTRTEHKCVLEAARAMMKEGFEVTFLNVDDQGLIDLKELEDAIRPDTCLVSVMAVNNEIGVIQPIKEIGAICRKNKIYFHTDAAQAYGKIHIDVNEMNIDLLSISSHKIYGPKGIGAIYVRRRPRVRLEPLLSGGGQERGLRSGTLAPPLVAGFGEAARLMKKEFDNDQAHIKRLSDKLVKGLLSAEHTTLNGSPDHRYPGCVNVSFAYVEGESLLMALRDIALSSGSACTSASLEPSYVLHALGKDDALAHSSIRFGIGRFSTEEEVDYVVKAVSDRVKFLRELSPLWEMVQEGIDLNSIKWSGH
UniProt Q6Q560: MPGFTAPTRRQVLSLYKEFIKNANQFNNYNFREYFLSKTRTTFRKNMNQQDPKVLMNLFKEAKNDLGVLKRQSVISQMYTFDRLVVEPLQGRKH
UniProt P0A6A8: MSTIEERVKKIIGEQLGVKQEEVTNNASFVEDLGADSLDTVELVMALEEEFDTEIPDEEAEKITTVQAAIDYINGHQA

T1: Yah1-GST fusion protein (S. cerevisiae) (UniProt Q12184)
T1 sequence: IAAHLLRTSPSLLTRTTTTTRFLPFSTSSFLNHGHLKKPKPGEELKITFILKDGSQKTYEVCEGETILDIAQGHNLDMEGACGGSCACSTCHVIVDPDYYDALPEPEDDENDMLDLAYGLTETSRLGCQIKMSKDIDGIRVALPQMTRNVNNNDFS


What was measured:
[1] = target: T1, Yah1-GST fusion protein (S. cerevisiae); assay: condition: only aerobic conditions (Yah1 cluster oxidised); Isu1Sc 10 μM; BLI; Yah1^GST immobilised on anti-GST biosensors; analytes NIA (10 μM) alone, Isu1 (10 μM) alone or both; buffer BLI (40 mM HEPES–KOH pH 7.5, 5% glycerol, 100 mM KCl, 1 mM DTT, 10 mM MgCl2, 0.05% Triton X-100); room temperature; aerobic (Yah1 cluster oxidised); fits with the 2:1 heterogenous ligand model; both purified
[2] = target: T2, NIA complex (Nfs1–Isd11–ACPEc) (S. cerevisiae | E. coli (endogenous in the expression host)) (UniProt P25374+Q6Q560+P0A6A8); assay: pull-down; GST-tagged Yah1 bait (2.5 μM) incubated with NIA (5 μM or increasing) and/or Isu1 (7.5 μM) in buffer PD (40 mM Hepes–KOH pH 7.5, 5% glycerol, 100 mM KCl, 1 mM DTT, 10 mM MgCl2) 15 min at 25 °C; glutathione agarose 1 h at 4 °C; SDS-PAGE, InstantBlue, densitometry corrected for binding to GST; aerobic (Yah1 cluster oxidised); both purified
[3] = target: T1, Yah1-GST fusion protein (S. cerevisiae); assay: condition: only aerobic conditions (Yah1 cluster oxidised); Isu1Sc 7.5 μM; pull-down; GST-tagged Yah1 bait (2.5 μM) incubated with NIA (5 μM or increasing) and/or Isu1 (7.5 μM) in buffer PD (40 mM Hepes–KOH pH 7.5, 5% glycerol, 100 mM KCl, 1 mM DTT, 10 mM MgCl2) 15 min at 25 °C; glutathione agarose 1 h at 4 °C; SDS-PAGE, InstantBlue, densitometry corrected for binding to GST; aerobic (Yah1 cluster oxidised); both purified
[4] = target: T1, Yah1-GST fusion protein (S. cerevisiae); assay: BLI; anaerobic chamber; Yah1^GST (WT or DD/KK) chemically reduced with 5 mM sodium dithionite (30 min, then desalted) and immobilised on anti-GST sensors; analytes NIA (10 μM), NIA with Isu1Sc (10 μM each) or Isu1Sc (10 μM); buffer BLI; both purified
[5] = target: T2, NIA complex (Nfs1–Isd11–ACPEc) (S. cerevisiae | E. coli (endogenous in the expression host)); assay: BLI; His-tagged Nfs1 of the NIA complex immobilised on a Ni–nitrilotriacetic acid-coated sensor; untagged Yah1 in solution; both purified

| binding [1] | binding [2] | binding [3] | binding [4] | binding [5] | Binder |
| --- | --- | --- | --- | --- | --- |
| no binding | binds | no binding | binds |  | Isu1 of S. cerevisiae (protein, UniProt Q03020 28-165) SSITKRLYHPKVIEHYTHPRNVGSLDKKLPNVGTGLVGAPACGDVMRLQIKVNDSTGVIEDVKFKTFGCGSAIASSSYMTELVQGMTLDDAAKIKNTEIAKELSLPPVKLHCSMLAEDAIKAAIKDYKSKRNTPTMLS |
|  |  |  |  | binds | Yah1 (untagged, holo) (protein, UniProt Q12184 17-172) IAAHLLRTSPSLLTRTTTTTRFLPFSTSSFLNHGHLKKPKPGEELKITFILKDGSQKTYEVCEGETILDIAQGHNLDMEGACGGSCACSTCHVIVDPDYYDALPEPEDDENDMLDLAYGLTETSRLGCQIKMSKDIDGIRVALPQMTRNVNNNDFS |
